# For at least one compound, name, drawing or mass did not settle the structure.
# System: TNF-alpha
# Assay: Serum cytokine levels in lymphoma subjects in a clinical study of tipifarnib
# Format: in vivo, human
# Conditions: lymphoma subjects with high TNF-alpha levels; starting dose 900 mg on days 1-7 and 15-21 of 28 days treatment cycles; Cycle 1 Day 1 vs Cycle 2 Day 1; 8 subjects; FIG. 2
smiles,measurement,value
Cn1cncc1[C@@](N)(c1ccc(Cl)cc1)c1ccc2c(c1)c(-c1cccc(Cl)c1)cc(=O)n2C [tipifarnib],serum Th1 cytokine TNF-alpha production,induced downregulation of Th1 cytokine TNF-alpha production

# From patent US20170326133A1, “METHODS OF TREATING MYELODYSPLASTIC SYNDROME WITH FARNESYLTRANSFERASE INHIBITORS” (Kura Oncology, Inc., priority 2016, published 2017)
